Results from the supplement of paper PMC12823440, “Inhibitors supercharge kinase turnover through native proteolytic circuits” (Nature, 2025).
Structures can show the parent of a compound that is named as a salt. The list shows a part of the results. The calls rarely recur for the same compound in another form.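 In K562 cells expressing nanoluciferase-fused kinases, luminescence was recorded at 4 h intervals between 2 and 18 h, normalized as percent of control with DMSO at 100% and a positive control at 0%. A significant (2 sigma) signal drop marks a time point as decreased. The authors' rule for a hit is not shown and takes in more than the number of time points.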

Sequences of proteins named here, by UniProt entry; tags and fusion partners are left off. A change or cut given only in a name is not applied to a line headed by its entry.
UniProt Q9Y616: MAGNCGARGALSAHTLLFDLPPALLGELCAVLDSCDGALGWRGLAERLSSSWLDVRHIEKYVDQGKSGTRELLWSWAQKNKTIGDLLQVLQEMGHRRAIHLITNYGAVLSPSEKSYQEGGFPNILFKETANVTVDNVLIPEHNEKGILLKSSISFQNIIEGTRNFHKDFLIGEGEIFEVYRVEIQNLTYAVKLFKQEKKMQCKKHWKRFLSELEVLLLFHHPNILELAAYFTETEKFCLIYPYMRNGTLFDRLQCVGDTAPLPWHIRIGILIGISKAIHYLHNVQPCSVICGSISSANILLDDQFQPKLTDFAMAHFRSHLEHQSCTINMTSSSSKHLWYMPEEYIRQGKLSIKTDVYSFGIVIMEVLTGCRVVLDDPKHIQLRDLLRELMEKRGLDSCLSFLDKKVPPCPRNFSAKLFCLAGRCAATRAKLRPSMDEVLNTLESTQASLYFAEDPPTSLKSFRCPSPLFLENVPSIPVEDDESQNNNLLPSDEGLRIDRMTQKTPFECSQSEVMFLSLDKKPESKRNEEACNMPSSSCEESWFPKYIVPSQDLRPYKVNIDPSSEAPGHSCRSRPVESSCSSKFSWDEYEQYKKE
UniProt P23458: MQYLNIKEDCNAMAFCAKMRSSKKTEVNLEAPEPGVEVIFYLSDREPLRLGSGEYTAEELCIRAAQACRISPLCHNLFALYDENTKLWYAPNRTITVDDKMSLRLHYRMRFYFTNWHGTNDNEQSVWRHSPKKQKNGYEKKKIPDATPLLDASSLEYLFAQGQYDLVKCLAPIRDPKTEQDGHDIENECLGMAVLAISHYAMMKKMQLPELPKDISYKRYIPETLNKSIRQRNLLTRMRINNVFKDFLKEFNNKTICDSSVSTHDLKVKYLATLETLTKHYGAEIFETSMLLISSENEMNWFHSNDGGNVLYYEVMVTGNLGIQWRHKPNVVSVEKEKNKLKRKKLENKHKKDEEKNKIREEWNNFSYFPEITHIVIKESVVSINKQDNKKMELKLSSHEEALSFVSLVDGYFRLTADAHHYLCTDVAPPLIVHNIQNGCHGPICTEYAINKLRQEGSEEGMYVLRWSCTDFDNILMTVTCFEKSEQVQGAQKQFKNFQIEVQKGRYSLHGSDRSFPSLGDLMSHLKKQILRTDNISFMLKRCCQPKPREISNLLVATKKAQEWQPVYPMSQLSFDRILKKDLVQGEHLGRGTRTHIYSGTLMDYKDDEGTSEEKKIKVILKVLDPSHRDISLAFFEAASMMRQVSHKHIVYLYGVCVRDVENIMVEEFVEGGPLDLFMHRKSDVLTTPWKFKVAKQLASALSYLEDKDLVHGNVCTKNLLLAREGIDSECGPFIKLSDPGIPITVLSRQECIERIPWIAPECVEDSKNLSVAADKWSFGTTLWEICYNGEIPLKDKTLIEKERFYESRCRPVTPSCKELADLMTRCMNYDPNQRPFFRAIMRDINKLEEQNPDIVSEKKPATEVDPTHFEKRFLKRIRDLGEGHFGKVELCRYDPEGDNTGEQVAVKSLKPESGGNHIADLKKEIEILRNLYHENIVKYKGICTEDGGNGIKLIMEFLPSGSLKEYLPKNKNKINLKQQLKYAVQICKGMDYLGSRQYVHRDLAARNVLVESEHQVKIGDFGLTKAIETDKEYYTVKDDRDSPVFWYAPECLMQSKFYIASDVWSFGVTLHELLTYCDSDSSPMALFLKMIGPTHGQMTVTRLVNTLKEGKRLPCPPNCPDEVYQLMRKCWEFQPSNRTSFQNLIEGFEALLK
UniProt P06239: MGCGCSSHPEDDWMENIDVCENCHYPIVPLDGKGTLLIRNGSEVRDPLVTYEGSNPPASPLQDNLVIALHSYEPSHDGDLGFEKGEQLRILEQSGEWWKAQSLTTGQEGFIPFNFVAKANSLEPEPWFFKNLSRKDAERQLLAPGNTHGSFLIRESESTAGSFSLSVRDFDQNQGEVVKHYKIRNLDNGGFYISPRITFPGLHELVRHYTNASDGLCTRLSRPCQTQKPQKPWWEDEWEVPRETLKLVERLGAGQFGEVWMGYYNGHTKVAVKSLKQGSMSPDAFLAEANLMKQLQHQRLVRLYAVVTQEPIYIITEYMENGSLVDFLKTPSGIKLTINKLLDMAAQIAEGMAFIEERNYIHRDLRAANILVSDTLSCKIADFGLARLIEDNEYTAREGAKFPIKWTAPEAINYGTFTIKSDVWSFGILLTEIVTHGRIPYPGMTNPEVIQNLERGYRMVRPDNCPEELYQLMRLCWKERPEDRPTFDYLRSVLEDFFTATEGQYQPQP
UniProt P53667: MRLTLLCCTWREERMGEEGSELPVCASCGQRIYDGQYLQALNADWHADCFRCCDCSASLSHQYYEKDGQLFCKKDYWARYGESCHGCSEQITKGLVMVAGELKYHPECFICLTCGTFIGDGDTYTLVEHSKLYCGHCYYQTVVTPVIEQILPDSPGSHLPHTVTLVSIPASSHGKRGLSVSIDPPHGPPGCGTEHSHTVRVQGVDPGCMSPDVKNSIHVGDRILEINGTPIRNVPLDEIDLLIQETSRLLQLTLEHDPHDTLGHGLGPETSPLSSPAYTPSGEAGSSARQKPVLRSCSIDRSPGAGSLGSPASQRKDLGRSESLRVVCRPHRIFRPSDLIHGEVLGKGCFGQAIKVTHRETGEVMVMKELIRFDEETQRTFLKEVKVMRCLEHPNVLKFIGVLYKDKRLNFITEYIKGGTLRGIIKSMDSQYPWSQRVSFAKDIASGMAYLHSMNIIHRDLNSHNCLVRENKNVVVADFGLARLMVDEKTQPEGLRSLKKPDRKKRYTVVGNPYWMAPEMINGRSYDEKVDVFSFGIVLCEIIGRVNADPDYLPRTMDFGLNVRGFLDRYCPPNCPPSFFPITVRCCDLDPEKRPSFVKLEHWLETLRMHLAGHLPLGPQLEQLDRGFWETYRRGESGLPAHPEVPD
UniProt P53671: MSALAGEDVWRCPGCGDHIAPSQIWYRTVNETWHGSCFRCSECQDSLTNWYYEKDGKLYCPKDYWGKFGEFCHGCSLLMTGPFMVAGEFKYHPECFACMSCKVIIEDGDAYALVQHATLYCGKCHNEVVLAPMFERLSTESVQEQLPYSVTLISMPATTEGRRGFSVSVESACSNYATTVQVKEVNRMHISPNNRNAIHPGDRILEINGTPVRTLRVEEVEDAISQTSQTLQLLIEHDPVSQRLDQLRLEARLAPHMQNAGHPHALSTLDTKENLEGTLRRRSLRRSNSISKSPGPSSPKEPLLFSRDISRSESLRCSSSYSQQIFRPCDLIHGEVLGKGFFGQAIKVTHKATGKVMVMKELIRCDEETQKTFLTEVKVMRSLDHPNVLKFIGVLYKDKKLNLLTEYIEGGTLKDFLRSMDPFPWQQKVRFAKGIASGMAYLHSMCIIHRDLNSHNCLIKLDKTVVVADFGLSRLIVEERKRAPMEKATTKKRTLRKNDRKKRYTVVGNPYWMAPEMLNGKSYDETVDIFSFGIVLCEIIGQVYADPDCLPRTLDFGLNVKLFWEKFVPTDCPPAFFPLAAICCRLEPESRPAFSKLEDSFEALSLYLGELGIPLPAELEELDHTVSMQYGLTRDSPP
UniProt Q8IWU2: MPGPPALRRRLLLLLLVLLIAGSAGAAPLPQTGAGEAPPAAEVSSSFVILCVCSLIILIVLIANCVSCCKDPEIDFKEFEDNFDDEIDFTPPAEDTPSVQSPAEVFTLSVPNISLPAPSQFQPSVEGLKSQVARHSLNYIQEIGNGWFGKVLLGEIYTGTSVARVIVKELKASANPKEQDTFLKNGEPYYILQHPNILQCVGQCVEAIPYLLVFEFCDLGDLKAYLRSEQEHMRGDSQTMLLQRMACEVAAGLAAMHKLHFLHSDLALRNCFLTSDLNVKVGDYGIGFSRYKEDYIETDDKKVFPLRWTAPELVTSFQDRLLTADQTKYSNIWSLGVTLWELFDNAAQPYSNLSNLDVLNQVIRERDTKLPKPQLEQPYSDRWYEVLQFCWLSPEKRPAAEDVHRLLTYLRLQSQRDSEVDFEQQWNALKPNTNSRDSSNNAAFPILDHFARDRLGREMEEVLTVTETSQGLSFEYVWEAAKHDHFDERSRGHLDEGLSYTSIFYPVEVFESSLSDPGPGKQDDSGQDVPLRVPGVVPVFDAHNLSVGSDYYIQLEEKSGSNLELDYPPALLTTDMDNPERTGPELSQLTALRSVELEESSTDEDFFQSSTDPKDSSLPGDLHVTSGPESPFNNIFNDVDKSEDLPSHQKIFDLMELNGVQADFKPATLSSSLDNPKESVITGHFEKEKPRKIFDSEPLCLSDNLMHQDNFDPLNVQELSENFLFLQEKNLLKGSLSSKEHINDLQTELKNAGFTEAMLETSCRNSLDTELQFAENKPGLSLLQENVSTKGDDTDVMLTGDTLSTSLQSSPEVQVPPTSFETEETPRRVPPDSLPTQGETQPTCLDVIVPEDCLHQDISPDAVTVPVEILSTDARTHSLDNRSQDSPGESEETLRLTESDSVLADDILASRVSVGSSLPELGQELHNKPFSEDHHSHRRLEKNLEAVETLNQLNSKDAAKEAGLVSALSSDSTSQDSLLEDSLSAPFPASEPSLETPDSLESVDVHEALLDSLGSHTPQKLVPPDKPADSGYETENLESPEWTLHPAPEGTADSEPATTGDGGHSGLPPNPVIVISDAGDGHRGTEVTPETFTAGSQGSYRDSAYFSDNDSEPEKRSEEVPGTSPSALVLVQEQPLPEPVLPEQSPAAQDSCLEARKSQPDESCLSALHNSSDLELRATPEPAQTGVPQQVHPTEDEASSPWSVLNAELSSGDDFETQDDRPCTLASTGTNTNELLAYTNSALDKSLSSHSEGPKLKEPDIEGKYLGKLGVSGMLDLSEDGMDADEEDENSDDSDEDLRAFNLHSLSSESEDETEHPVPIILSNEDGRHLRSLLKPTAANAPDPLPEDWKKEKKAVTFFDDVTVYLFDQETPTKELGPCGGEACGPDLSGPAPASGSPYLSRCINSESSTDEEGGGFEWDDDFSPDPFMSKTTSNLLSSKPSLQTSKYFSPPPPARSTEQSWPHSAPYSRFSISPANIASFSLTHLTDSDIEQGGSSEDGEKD
UniProt P07948: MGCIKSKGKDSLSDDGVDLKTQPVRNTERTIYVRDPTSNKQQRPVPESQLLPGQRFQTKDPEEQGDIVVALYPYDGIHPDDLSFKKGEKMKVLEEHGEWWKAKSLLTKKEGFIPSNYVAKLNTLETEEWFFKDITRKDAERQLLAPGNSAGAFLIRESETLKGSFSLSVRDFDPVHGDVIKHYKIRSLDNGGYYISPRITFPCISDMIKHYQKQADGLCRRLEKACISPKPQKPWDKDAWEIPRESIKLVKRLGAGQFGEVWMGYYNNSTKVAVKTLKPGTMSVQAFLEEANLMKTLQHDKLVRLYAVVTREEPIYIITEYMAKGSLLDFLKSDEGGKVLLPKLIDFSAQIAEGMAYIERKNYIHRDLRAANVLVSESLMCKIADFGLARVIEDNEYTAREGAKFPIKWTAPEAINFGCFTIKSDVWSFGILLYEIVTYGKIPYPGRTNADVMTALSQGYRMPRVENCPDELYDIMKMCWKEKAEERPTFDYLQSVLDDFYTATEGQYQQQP
UniProt Q12851: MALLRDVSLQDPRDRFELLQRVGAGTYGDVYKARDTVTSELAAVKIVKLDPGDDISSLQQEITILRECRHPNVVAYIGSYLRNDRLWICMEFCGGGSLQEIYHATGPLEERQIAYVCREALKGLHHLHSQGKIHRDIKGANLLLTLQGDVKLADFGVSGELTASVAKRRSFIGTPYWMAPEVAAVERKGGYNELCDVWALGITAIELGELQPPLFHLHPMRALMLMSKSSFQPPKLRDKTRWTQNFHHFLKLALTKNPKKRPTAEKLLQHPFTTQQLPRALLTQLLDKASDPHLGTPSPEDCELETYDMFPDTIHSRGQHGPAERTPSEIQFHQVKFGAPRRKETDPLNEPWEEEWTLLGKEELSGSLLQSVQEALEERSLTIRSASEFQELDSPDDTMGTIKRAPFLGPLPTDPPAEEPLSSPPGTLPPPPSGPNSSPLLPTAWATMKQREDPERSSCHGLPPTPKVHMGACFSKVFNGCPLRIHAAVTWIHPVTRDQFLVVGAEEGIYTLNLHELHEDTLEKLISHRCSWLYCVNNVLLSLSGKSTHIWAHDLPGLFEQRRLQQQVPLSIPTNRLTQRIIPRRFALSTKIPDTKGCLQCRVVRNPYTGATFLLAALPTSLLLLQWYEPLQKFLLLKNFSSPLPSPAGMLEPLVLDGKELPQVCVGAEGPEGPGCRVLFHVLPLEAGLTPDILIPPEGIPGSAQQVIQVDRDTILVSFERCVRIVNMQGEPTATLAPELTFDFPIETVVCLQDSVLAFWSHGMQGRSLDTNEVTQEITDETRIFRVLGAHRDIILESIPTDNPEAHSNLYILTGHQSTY

Key:
Assay in all cases: kinase-Nluc reporter destabilization hit call (1 = scored as downregulated) (binary); higher = compound decreases kinase abundance
Details in all cases: K562; 2-18 h
IRAK3 = IRAK3 (UniProt Q9Y616)
JAK1 = JAK1 (UniProt P23458)
LCK = LCK (UniProt P06239)
LIMK1 = LIMK1 (UniProt P53667)
LIMK2 = LIMK2 (UniProt P53671)
LMTK2 = LMTK2 (UniProt Q8IWU2)
LYN = LYN (UniProt P07948)
MAP2K1 = MAP2K1 (UniProt Q02750)
MAP2K2 = MAP2K2 (UniProt P36507)
MAP4K2 = MAP4K2 (UniProt Q12851)

Measured: kinase-Nluc reporter destabilization hit call

CCn1c(=O)c(-c2ccc(-c3cncc(C)n3)cc2Cl)cc2cnc(NCCC3CCN(C)CC3)nc21 (10 µM)
inactive: IRAK3 = 0 | JAK1 = 0 | LCK 0 | LIMK1 = 0 | LIMK2 = 0 | LMTK2 = 0 | LYN 0 | MAP2K1 = 0 | MAP2K2 = 0 | MAP4K2 = 0

Nc1cc(Nc2ccc(S(N)(=O)=O)cc2)ncn1 (10 µM)
inactive: IRAK3 = 0 | JAK1 = 0 | LCK 0 | LIMK1 = 0 | LIMK2 = 0 | LMTK2 = 0 | LYN 0 | MAP2K1 = 0 | MAP2K2 = 0 | MAP4K2 = 0

CCN1CCN(Cc2ccc(Nc3ncc(F)c(-c4cc(F)c5nc(CO)n(C(C)C)c5c4)n3)nc2)CC1 [Abemaciclib metabolite M20] (2 µM)
inactive: IRAK3 = 0 | JAK1 = 0 | LCK 0 | LIMK1 = 0 | LIMK2 = 0 | LMTK2 = 0 | LYN 0 | MAP2K1 = 0 | MAP2K2 = 0 | MAP4K2 = 0

COc1cc(N2CCC(N3CCN(C)CC3)CC2)ccc1Nc1ncc(Cl)c(Nc2ccccc2P(C)(C)=O)n1 [Brigatinib] (2 µM)
inactive: IRAK3 = 0 | JAK1 = 0 | LCK 0 | LIMK1 = 0 | LIMK2 = 0 | LMTK2 = 0 | LYN 0 | MAP2K1 = 0 | MAP2K2 = 0 | MAP4K2 = 0

Cc1cc2cc(Nc3ccnc(Nc4ccc5[nH]c(C)cc5c4)n3)ccc2[nH]1 (2.5 µM)
inactive: IRAK3 = 0 | JAK1 = 0 | LCK 0 | LIMK1 = 0 | LIMK2 = 0 | LMTK2 = 0 | LYN 0 | MAP2K1 = 0 | MAP2K2 = 0 | MAP4K2 = 0

CC(=O)c1c(C)c2cnc(Nc3ccc(N4CCN(CCCCNC(=O)COc5cccc6c5C(=O)N(C5CCC(=O)NC5=O)C6=O)CC4)cn3)nc2n(C2CCCC2)c1=O (stereo not given) (10 µM)
inactive: IRAK3 = 0 | JAK1 = 0 | LCK 0 | LIMK1 = 0 | LIMK2 = 0 | LMTK2 = 0 | LYN 0 | MAP2K1 = 0 | MAP2K2 = 0 | MAP4K2 = 0

C[C@@H]1C(=O)O[C@H](C)[C@H]1C[C@@H](O)[C@](C)(O)[C@H]1CC[C@@]2(O)C3=CC(=O)[C@@H]4C[C@@H](O)[C@@H](O)C[C@]4(C)[C@H]3CC[C@]12C [Cyasterone] (10 µM)
inactive: IRAK3 = 0 | JAK1 = 0 | LCK 0 | LIMK1 = 0 | LIMK2 = 0 | LMTK2 = 0 | LYN 0 | MAP2K1 = 0 | MAP2K2 = 0 | MAP4K2 = 0

OC(COc1ccc(C(F)(F)F)cc1)CN(Cc1ccccc1)Cc1ccccc1 (stereo not given) (2.5 µM)
inactive: IRAK3 = 0 | JAK1 = 0 | LCK 0 | LIMK1 = 0 | LIMK2 = 0 | LMTK2 = 0 | LYN 0 | MAP2K1 = 0 | MAP2K2 = 0 | MAP4K2 = 0

CN1C(=O)C(Cc2c[nH]c3ccccc23)NC1=S (stereo not given) [Necrostatin-1] (10 µM)
inactive: IRAK3 = 0 | JAK1 = 0 | LCK 0 | LIMK1 = 0 | LIMK2 = 0 | LMTK2 = 0 | LYN 0 | MAP2K1 = 0 | MAP2K2 = 0 | MAP4K2 = 0

COc1cc(C(N)=O)nc(-c2cccc(C#C[C@]3(O)CCN(C)C3=O)c2)c1 (10 µM)
inactive: IRAK3 = 0 | JAK1 = 0 | LCK 0 | LIMK1 = 0 | LIMK2 = 0 | LMTK2 = 0 | LYN 0 | MAP2K1 = 0 | MAP2K2 = 0 | MAP4K2 = 0

Cc1cc([C@H](C)Nc2ccccc2)c2oc(N3CCOCC3)cc(=O)c2c1 (10 µM)
inactive: IRAK3 = 0 | JAK1 = 0 | LCK 0 | LIMK1 = 0 | LIMK2 = 0 | LMTK2 = 0 | LYN 0 | MAP2K1 = 0 | MAP2K2 = 0 | MAP4K2 = 0

Ordered by SMILES length (falling): four of the compounds above
CCN1CCN(Cc2ccc(Nc3ncc(F)c(-c4cc(F)c5nc(CO)n(C(C)C)c5c4)n3)nc2)CC1 [Abemaciclib metabolite M20] (2 µM)
inactive: IRAK3 = 0 | JAK1 = 0 | LCK 0 | LIMK1 = 0 | LIMK2 = 0 | LMTK2 = 0 | LYN 0 | MAP2K1 = 0 | MAP2K2 = 0 | MAP4K2 = 0

Cc1cc2cc(Nc3ccnc(Nc4ccc5[nH]c(C)cc5c4)n3)ccc2[nH]1 (2.5 µM)
inactive: IRAK3 = 0 | JAK1 = 0 | LCK 0 | LIMK1 = 0 | LIMK2 = 0 | LMTK2 = 0 | LYN 0 | MAP2K1 = 0 | MAP2K2 = 0 | MAP4K2 = 0

OC(COc1ccc(C(F)(F)F)cc1)CN(Cc1ccccc1)Cc1ccccc1 (stereo not given) (2.5 µM)
inactive: IRAK3 = 0 | JAK1 = 0 | LCK 0 | LIMK1 = 0 | LIMK2 = 0 | LMTK2 = 0 | LYN 0 | MAP2K1 = 0 | MAP2K2 = 0 | MAP4K2 = 0

Nc1cc(Nc2ccc(S(N)(=O)=O)cc2)ncn1 (10 µM)
inactive: IRAK3 = 0 | JAK1 = 0 | LCK 0 | LIMK1 = 0 | LIMK2 = 0 | LMTK2 = 0 | LYN 0 | MAP2K1 = 0 | MAP2K2 = 0 | MAP4K2 = 0

Further structures.

N#Cc1c(-c2ccccc2)cc(-c2cc(Br)ccc2O)[nH]c1=O (10 µM)
inactive: IRAK3 = 0 | JAK1 = 0 | LCK 0 | LIMK1 = 0 | LIMK2 = 0 | LMTK2 = 0 | LYN 0 | MAP2K1 = 0 | MAP2K2 = 0 | MAP4K2 = 0

COc1ccc(Cl)cc1NC(=O)Nc1cc(C)nc2ccccc12 (2.5 µM)
inactive: IRAK3 = 0 | JAK1 = 0 | LCK 0 | LIMK1 = 0 | LIMK2 = 0 | LMTK2 = 0 | LYN 0 | MAP2K1 = 0 | MAP2K2 = 0 | MAP4K2 = 0

Nc1ncnc2c1c(-c1ccc(Oc3ccccc3)cc1)nn2C1CCNCC1 [N-piperidine Ibrutinib (hydrochloride)] (10 µM)
inactive: IRAK3 = 0 | JAK1 = 0 | LCK 0 | LIMK1 = 0 | LIMK2 = 0 | LMTK2 = 0 | LYN 0 | MAP2K1 = 0 | MAP2K2 = 0 | MAP4K2 = 0

Cc1cc(O)c(C(C)C)cc1N=O [Poloxime] (10 µM)
inactive: IRAK3 = 0 | JAK1 = 0 | LCK 0 | LIMK1 = 0 | LIMK2 = 0 | LMTK2 = 0 | LYN 0 | MAP2K1 = 0 | MAP2K2 = 0 | MAP4K2 = 0

CN1CCN(c2ccc(C(=O)Nc3cc(-c4cccc(NS(=O)(=O)c5ccccc5)c4)[nH]n3)cc2)CC1 [BPR1J-097 Hydrochloride] (2.5 µM)
inactive: IRAK3 = 0 | JAK1 = 0 | LCK 0 | LIMK1 = 0 | LIMK2 = 0 | LMTK2 = 0 | LYN 0 | MAP2K1 = 0 | MAP2K2 = 0 | MAP4K2 = 0

COc1cc2ncn(-c3cc(OCc4ccccc4S(C)(=O)=O)c(C#N)s3)c2cc1OC (10 µM)
inactive: IRAK3 = 0 | JAK1 = 0 | LCK 0 | LIMK1 = 0 | LIMK2 = 0 | LMTK2 = 0 | LYN 0 | MAP2K1 = 0 | MAP2K2 = 0 | MAP4K2 = 0

CC(C)CN(CC(=O)N1CCN(CC(OCc2ccc3ccccc3c2)c2ccc(Cl)cc2Cl)CC1)CC(C)C (stereo not given) [LYN-1604 (dihydrochloride)] (2.5 µM)
inactive: IRAK3 = 0 | JAK1 = 0 | LCK 0 | LIMK1 = 0 | LIMK2 = 0 | LMTK2 = 0 | LYN 0 | MAP2K1 = 0 | MAP2K2 = 0 | MAP4K2 = 0

CCn1c(C(=O)N(C2CC2)C2CC2)cc2c3c(ncn3C)c(Nc3cc(C)n(C)n3)nc21 (10 µM)
inactive: IRAK3 = 0 | JAK1 = 0 | LCK 0 | LIMK1 = 0 | LIMK2 = 0 | LMTK2 = 0 | LYN 0 | MAP2K1 = 0 | MAP2K2 = 0 | MAP4K2 = 0

O=c1oc2cc(O)ccc2c2ccccc12 [Urolithin B] (10 µM)
inactive: IRAK3 = 0 | JAK1 = 0 | LCK 0 | LIMK1 = 0 | LIMK2 = 0 | LMTK2 = 0 | LYN 0 | MAP2K1 = 0 | MAP2K2 = 0 | MAP4K2 = 0

O=C1NC(=O)/C(=C/c2ccc3c(c2)OC(F)(F)O3)S1 (10 µM)
inactive: IRAK3 = 0 | JAK1 = 0 | LCK 0 | LIMK1 = 0 | LIMK2 = 0 | LMTK2 = 0 | LYN 0 | MAP2K1 = 0 | MAP2K2 = 0 | MAP4K2 = 0

Cc1ccc2nc(NC(=O)CSc3nc4c(c(=O)n3-c3ccccc3)SCC4)sc2c1 (2 µM)
inactive: IRAK3 = 0 | JAK1 = 0 | LCK 0 | LIMK1 = 0 | LIMK2 = 0 | LMTK2 = 0 | LYN 0 | MAP2K1 = 0 | MAP2K2 = 0 | MAP4K2 = 0

CNC(=O)Nc1ccc(-c2cc(-c3ccnc(Nc4ccc(C)c(S(=O)(=O)N(C)C)c4)n3)ccn2)cc1 [hSMG-1 inhibitor 11e] (2.5 µM)
inactive: IRAK3 = 0 | JAK1 = 0 | LCK 0 | LIMK1 = 0 | LIMK2 = 0 | LMTK2 = 0 | LYN 0 | MAP2K1 = 0 | MAP2K2 = 0 | MAP4K2 = 0

C=CC(=O)Nc1ccc(CN(C(=O)Nc2c(Cl)c(OC)cc(OC)c2Cl)c2cc(Nc3ccc(N4CCN(C)CC4)cc3)ncn2)cc1 (10 µM)
inactive: IRAK3 = 0 | JAK1 = 0 | LCK 0 | LIMK1 = 0 | LIMK2 = 0 | LMTK2 = 0 | LYN 0 | MAP2K1 = 0 | MAP2K2 = 0 | MAP4K2 = 0

CC(C)(C)c1ccc(S(=O)(=O)Nc2ccc(-n3ccnc3)cc2)cc1 (10 µM)
inactive: IRAK3 = 0 | JAK1 = 0 | LCK 0 | LIMK1 = 0 | LIMK2 = 0 | LMTK2 = 0 | LYN 0 | MAP2K1 = 0 | MAP2K2 = 0 | MAP4K2 = 0

O=[N+]([O-])c1cc(C(F)(F)F)cc([N+](=O)[O-])c1NNC(=S)Nc1ccc(F)cc1 (10 µM)
inactive: IRAK3 = 0 | JAK1 = 0 | LCK 0 | LIMK1 = 0 | LIMK2 = 0 | LMTK2 = 0 | LYN 0 | MAP2K1 = 0 | MAP2K2 = 0 | MAP4K2 = 0

CS(=O)(=O)c1ccc(-c2cnc(N)c(C(=O)Nc3ccccc3)n2)cc1 (10 µM)
inactive: IRAK3 = 0 | JAK1 = 0 | LCK 0 | LIMK1 = 0 | LIMK2 = 0 | LMTK2 = 0 | LYN 0 | MAP2K1 = 0 | MAP2K2 = 0 | MAP4K2 = 0
